Results are given in words; binding and its absence hold for the method and conditions named. Some binding calls cover weakened binding; strength is not graded here.
How the values were obtained:
BMP10 = molecular target: T1, BMP10 (UniProt O95393); assay: similar binding assay (SPR, Biacore)
T1 sequence (looked up): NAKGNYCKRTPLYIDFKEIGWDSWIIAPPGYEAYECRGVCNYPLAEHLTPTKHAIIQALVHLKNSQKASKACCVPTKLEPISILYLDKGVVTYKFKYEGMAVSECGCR

Sequences of proteins named here, by UniProt entry; tags and fusion partners are left off. A change or cut given only in a name is not applied to a line headed by its entry. Residues count along the entry.
UniProt P22004, residues 382-513: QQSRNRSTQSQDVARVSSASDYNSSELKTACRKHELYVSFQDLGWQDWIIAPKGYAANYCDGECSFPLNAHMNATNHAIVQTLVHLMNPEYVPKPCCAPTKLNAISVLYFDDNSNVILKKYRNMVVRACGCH
UniProt P27037: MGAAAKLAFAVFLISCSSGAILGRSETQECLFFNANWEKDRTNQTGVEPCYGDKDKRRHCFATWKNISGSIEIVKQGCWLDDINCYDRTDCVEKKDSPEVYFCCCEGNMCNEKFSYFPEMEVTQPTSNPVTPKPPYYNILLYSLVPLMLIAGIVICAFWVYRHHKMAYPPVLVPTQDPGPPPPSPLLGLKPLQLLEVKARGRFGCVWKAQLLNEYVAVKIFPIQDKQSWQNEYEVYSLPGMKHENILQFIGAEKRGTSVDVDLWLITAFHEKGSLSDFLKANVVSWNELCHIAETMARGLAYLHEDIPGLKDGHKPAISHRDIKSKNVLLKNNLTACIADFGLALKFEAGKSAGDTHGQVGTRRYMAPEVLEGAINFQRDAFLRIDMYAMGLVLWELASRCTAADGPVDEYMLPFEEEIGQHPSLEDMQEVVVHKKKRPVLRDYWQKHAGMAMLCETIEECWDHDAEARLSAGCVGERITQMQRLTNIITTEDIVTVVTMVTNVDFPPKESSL

BMP6 = BMP6 (UniProt P22004); assay: similar binding assay (SPR, Biacore)
GDF8 = molecular target: T2, GDF8 (UniProt O14793); assay: similar binding assay (SPR, Biacore)
T2 sequence (looked up): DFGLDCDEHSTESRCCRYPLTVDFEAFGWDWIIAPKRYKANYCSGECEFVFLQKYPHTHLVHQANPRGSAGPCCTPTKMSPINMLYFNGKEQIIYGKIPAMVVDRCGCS

activin B = molecular target: T3, activin B (UniProt P09529); assay: similar binding assay (SPR, Biacore)
T3 sequence (looked up): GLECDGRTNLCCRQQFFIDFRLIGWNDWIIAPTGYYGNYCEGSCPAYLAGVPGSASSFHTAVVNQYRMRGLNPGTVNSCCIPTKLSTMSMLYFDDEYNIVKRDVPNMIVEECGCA

GDF11 = molecular target: T4, GDF11 (UniProt O95390); assay: SPR (Biacore), ligand amine-coupled to CM5 chip, ActRIIA-mFc as analyte
T4 sequence (looked up): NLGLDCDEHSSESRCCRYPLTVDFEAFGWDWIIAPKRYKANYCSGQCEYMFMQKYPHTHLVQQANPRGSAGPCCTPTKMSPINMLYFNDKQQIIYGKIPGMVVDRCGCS

- binding (BMP10): binds
- binding (BMP6): binds
- binding (GDF8): binds
- binding (activin B): binds
- binding (GDF11): binds
Substance: ActRIIA-mFc (from UniProt P27037 21-135) (Fc fusion)
